# Test results as given in PubChem BioAssay AID493014 (National Center for Advancing Translational Sciences (NCATS), 2011).
# The whole screen tested about 340,000 compounds, of which about 170 (0.05%) were called active. Inconclusive means that the source gave no clear call. Such entries were picked first, then a sample of the others. The call rests on the fitted dose curve; in most records, active means well fitted inhibition curve with a large enough effect in the signal ratio, with a control signal flat (not every such curve was filed as active); inconclusive means small, poorly fitted or top-dose-only effect, or effect the other way, or a change in a side signal; inactive means flat fitted curve, though single readings scatter; the % refers to the signal ratio. Where the call is inconclusive, the potency comes from a doubtful curve fit.
# Assay: qHTS Assay to Find Inhibitors of Chronic Active B-Cell Receptor Signaling;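 on activity change, negative = inhibition: plate controls were basal doxycycline-induced cells for no effect and cells given 10 µM MG132 for full effect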
# Details: ABC-DLBCL IkBa-CBG/CBR reporter, luminescence ratio (green luciferase fused to IkBa over red control in TMD8 lymphoma cells), 4 h; activity change, negative = inhibition: at 46.1 µM (top of the series)
# Method in brief: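 TMD8 human ABC-DLBCL cells with doxycycline-inducible IκBα–green luciferase fusion and unfused red luciferase, in 0.5% FBS medium; compounds up to 46 uM, 4 h at 37C. Green/red luminescence ratio, filter-overlap corrected, fitted to concentration-response curves.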
# Potency means the concentration at half of the fitted maximal effect.
SMILES,"activity change, negative = inhibition",Potency
CN(CC(=O)Nc1ccccc1Cl)C(=O)COC(=O)c1ccccc1[N+](=O)[O-],inconclusive: 6.35%,
Cc1cc(C(=O)CSc2nn3c(=O)c(C(C)(C)C)nnc3s2)c(C)n1C1CC1,inconclusive: 1.3%,
CC(=O)Nc1ccc(NC(=O)/C=C/c2ccc3c(c2)OCO3)cc1,inactive,
Cc1ccc(S(=O)(=O)Cc2ccc(C(=O)N3CCCCCC3)o2)cc1,,"inconclusive: 4.61 µM [rising, partial curve, poor fit]"
COc1ccc(Cn2c(=O)c3[nH]cnc3n(-c3ccc(C)cc3)c2=O)cc1,,"inconclusive: 7.94 µM [falling, partial curve]"
Fc1ccccc1CSc1ncnc2c1oc1ccccc12,inconclusive: 2.02%,
Cc1ccc(-c2ccc(/C=C3\SC(N4CCOCC4)=NC3=O)o2)cc1,inactive,
COc1ccc(COCC(O)CN2CCN(S(=O)(=O)c3ccc(C(C)C)cc3)CC2)cc1 (stereo not drawn),inactive,
CCc1cc(C(=O)OC)c(NC(=O)CCC(=O)O)s1,inconclusive: 2.21%,
CN(C)S(=O)(=O)c1ccc(C(=O)Nc2nc3ccccc3[nH]2)cc1,inconclusive: 13.9%,
CC1(C)CC(=O)c2sc(NC(=O)CN3CCCCC3)nc2C1,inactive,
O=C1Nc2cc(C(F)(F)F)ccc2N2CCCCC12 (stereo not drawn),inconclusive: 2.25%,
Cc1ccccc1-n1c(SCC(=O)NC(N)=O)nc2sc(-c3ccccc3)cc2c1=O,inactive,
CNC(=S)N=Nc1c(O)[nH]c2ccccc12,inconclusive: -16.3%,
O=C(NNC(=O)c1cccs1)c1ccc(Cl)cc1,,"inconclusive: 23.1 µM [falling, single point]"
Cc1cc(C(=O)NNS(=O)(=O)c2ccc(C(C)(C)C)cc2)nn1C(C)(C)C,,"inconclusive: 35.5 µM [falling, single point]"
Clc1cccc(CN2CCN(c3ncccn3)CC2)c1Cl,inconclusive: 9.92%,
Cc1ccc(Cn2ncc3c(N4CCN(CC#N)CC4)ncnc32)cc1,,"inconclusive: 8.91 µM [falling, partial curve, poor fit]"
CCOc1c(Nc2cccc(Cl)c2)c(=O)c1=O,inconclusive: -16.2%,
Cc1ccc(C(=O)Nc2nccc(-c3cccs3)n2)cc1,,"inconclusive: 15.8 µM [falling, partial curve, poor fit]"
CNC(=O)N(O)C1N(/N=C/c2ccc(N(C)C)cc2)C(=S)SC1(C)C (stereo not drawn),inactive,
O=C(/C=C/c1ccco1)OCC(=O)c1cccc([N+](=O)[O-])c1,inconclusive: 10%,
C=CCn1c(SCC(=O)Nc2nc3ccccc3s2)nnc1-c1ccccc1O,inconclusive: -1.4%,

# Random excerpt: 2 compounds from above
SMILES,"activity change, negative = inhibition",Potency
CN(C)S(=O)(=O)c1ccc(C(=O)Nc2nc3ccccc3[nH]2)cc1,inconclusive: 13.9%,
Fc1ccccc1CSc1ncnc2c1oc1ccccc12,inconclusive: 2.02%,
